{"source": "PubChem BioAssay AID1053208 (Peter MacCallum Cancer Centre, 2014)", "purpose": "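Genes whose silencing cuts survival of bone tumour cells only with doxorubicin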 (primary screen)", "cell system": "mouse osteosarcoma cells, early-passage culture from an engineered mouse model of fibroblastic bone tumour", "reagent": "siRNA pool against mouse genes, 40 nM", "time to read-out": "about 120 h (48 h before drug, then 72 h with drug)", "challenge": "doxorubicin 100 nM for 72 h, roughly 30-40% inhibitory dose", "detection": "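Luminescent ATP signal taken as viability with or without 100 nM doxorubicin for 72 h; mean of two wells set against non-targeting siRNA and turned into robust z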", "direction": "viability z-score with doxorubicin: higher = more viable cells under doxorubicin; viability z-score without drug: higher = more viable cells with knock-down alone", "call rule": "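a pool counts as active when its viability z-score with doxorubicin is -2 or below and its z-score without drug lies between -2 and 2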", "note": "Shown is a random part of about 17,000 reagents. 788 of all reagents (4.7%) were called active. 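Calls rest on z-score classes alone; an extra cut-off of viability at most 70% of control was not applied to them.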 Entries without a mark were called inactive. Not all columns of the deposit are shown."}
{"gene symbol":"Akap9 (A kinase anchor protein 9)","combined z-score class":"no change with or without drug","viability z-score with doxorubicin":0.11,"viability z-score without drug":1.52}
{"gene symbol":"Slc25a48","combined z-score class":"no change with or without drug","viability z-score with doxorubicin":-0.11,"viability z-score without drug":1.18}
{"gene symbol":"Klk4","combined z-score class":"high cell count with doxorubicin only","viability z-score with doxorubicin":2.02,"viability z-score without drug":1.18}
{"gene symbol":"Myl2 (myosin, light polypeptide 2, regulatory, cardiac, slow)","combined z-score class":"no change with or without drug","viability z-score with doxorubicin":1.12,"viability z-score without drug":0.51}
{"gene symbol":"Atp6v1c2 (ATPase, H+ transporting, lysosomal V1 subunit C2)","combined z-score class":"no change with or without drug","viability z-score with doxorubicin":-1.01,"viability z-score without drug":-0.17}
{"gene symbol":"Plcd4 (phospholipase C, delta 4)","combined z-score class":"no change with or without drug","viability z-score with doxorubicin":1.35,"viability z-score without drug":1.18}
{"gene symbol":"Gkn1 (gastrokine 1)","combined z-score class":"no change with or without drug","viability z-score with doxorubicin":0.67,"viability z-score without drug":1.69}
{"gene symbol":"Plvap (plasmalemma vesicle associated protein)","combined z-score class":"no change with or without drug","viability z-score with doxorubicin":-0.45,"viability z-score without drug":1.35}
{"gene symbol":"Ugt2a1 (UDP glucuronosyltransferase 2 family, polypeptide A1)","combined z-score class":"no change with or without drug","viability z-score with doxorubicin":-1.12,"viability z-score without drug":1.18}
{"gene symbol":"Scarb2 (scavenger receptor class B, member 2)","combined z-score class":"high cell count without drug only","viability z-score with doxorubicin":1.12,"viability z-score without drug":2.36}
{"gene symbol":"Arl6ip4 (ADP-ribosylation factor-like 6 interacting protein 4)","combined z-score class":"no change with or without drug","viability z-score with doxorubicin":-0.67,"viability z-score without drug":0.34}
{"gene symbol":"Cd63 (CD63 antigen)","combined z-score class":"no change with or without drug","viability z-score with doxorubicin":-1.12,"viability z-score without drug":-0.17}

Quoted from the entries so far for reference:
{"gene symbol":"Atp6v1c2 (ATPase, H+ transporting, lysosomal V1 subunit C2)","combined z-score class":"no change with or without drug","viability z-score with doxorubicin":-1.01,"viability z-score without drug":-0.17}
{"gene symbol":"Plcd4 (phospholipase C, delta 4)","combined z-score class":"no change with or without drug","viability z-score with doxorubicin":1.35,"viability z-score without drug":1.18}
